The other results are listed elsewhere or left out.

Protein sequences, listed by entry. Tags and fused reporters are not part of them.
UniProt Q0JBA9, entry or part of it: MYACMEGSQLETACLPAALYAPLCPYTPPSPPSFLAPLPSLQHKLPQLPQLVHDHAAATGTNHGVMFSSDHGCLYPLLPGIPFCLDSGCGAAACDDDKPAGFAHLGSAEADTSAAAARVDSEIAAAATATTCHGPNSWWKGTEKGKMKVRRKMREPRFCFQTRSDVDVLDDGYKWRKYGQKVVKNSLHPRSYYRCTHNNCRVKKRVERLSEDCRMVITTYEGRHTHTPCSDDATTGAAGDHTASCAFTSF

The assay addresses OsWRKY34 (Oryza sativa, UniProt Q0JBA9 1-250). Nature of the assay: protein-binding microarray (RPBM); PBS, 2% BSA, 51.3 ng/ul salmon testes DNA, 50 uM zinc acetate, 200 nM TF, 25 C, 1 h; high values mean tight binding. The settings on record: protein: recombinant; tags: N-terminal polyhistidine and DsRed monomer fusion (pET32a); label: CyDye5-dUTP incorporated in the synthesized complementary strand; 3' TTTTT single-stranded linker to array surface; dsDNA, one strand shown. The essentials:
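Transcription factors were each fused at the N-terminus to a polyhistidine tag plus DsRed and expressed in E. coli BL21-CodonPlus before Ni–NTA purification. Binding to a double-stranded custom Agilent array was carried out with 200 nM protein at 25 °C for 1 h in PBS, 2% BSA, salmon testes DNA and 50 µM zinc acetate. The binding signal is per-feature fluorescence intensity, in arbitrary units, on an Axon 4000B scanner.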
Turning to “AACCTCTCCATTTCAACCTGTTCACGATCCTGCTTAACCACGGAGTCACCTAGTGCAG”, the binding signal was 10900 fluorescence intensity (a.u.).

Take “TTTTTCTCGGTAATTTTGTGATTGGTCTACTCCTACAAAACGGAGTCACCTAGTGCAG”: the binding signal is 8290 fluorescence intensity (a.u.).

For “CTAGCTAGCAATCGAGCTCAGTTTTCCTAATTAATTGCTACGGAGTCACCTAGTGCAG”, the binding signal is 8300 fluorescence intensity (a.u.).

Consider “CCCTATTCCTCTCTCTCTTCTCTTTTCTCTCTGTCGCTCTCGGAGTCACCTAGTGCAG”, for which the binding signal was 8790 fluorescence intensity (a.u.).

Regarding “CCATCCAGTTTTCCATGTTTCCCAGCTCAAGGTTGCACATCGGAGTCACCTAGTGCAG”, the binding signal was 9410 fluorescence intensity (a.u.).

In the case of “GTTCCGTTTCGCAGTCGTCGTCGTCGTCTCCGATGATGATCGGAGTCACCTAGTGCAG”, the binding signal was 9310 fluorescence intensity (a.u.).

Regarding “TTTTTCTTTCATCCCTTTTTGATCTACAAAGTTATACAGTCGGAGTCACCTAGTGCAG”, the binding signal was 8500 fluorescence intensity (a.u.).

For the sequence “TAAGAAGCTATGCACTCTTTCTATTTTCTTTTACATTATACGGAGTCACCTAGTGCAG”, the binding signal was 8450 fluorescence intensity (a.u.).

Turning to “AACCAGCACGCGATGGGGAGGGGCGAGCAGGAGGCGGCGGCGGAGTCACCTAGTGCAG”, the binding signal is 12400 fluorescence intensity (a.u.).

Regarding “GACCAACCAAAACCTCCGATCACCTTGTCCCGTACTGAAACGGAGTCACCTAGTGCAG”, the binding signal is 11000 fluorescence intensity (a.u.).

As to “GATATCTCTTGGTCGATTTATTTGTATTTCTGTCATGATTCGGAGTCACCTAGTGCAG”, the binding signal was 14100 fluorescence intensity (a.u.).

For the sequence “ATTGTGGCTGGGTTTCCTGTTAAATGATCTTCCTCTATCTCGGAGTCACCTAGTGCAG”, the binding signal is 9000 fluorescence intensity (a.u.).

Regarding “CTAGTAGGGTTAGTTTTAGATTTTATCGGGTTCATCTTGTCGGAGTCACCTAGTGCAG”, the binding signal was 8330 fluorescence intensity (a.u.).

Turning to “AAAGCGTTTTACTTTGGTTATCACAAGTCGTTCCTCTTGTCGGAGTCACCTAGTGCAG”, the binding signal is 9440 fluorescence intensity (a.u.).

Turning to “TGGGTTGGTTGGGTGGTCGGCTTCGGTCTCGAACCGCGGCCGGAGTCACCTAGTGCAG”, the binding signal was 11500 fluorescence intensity (a.u.).

As to “CCTTTTCTTTCTTTTTTGGATGTGGTGGGGCATGAGCAGTCGGAGTCACCTAGTGCAG”, the binding signal was 12200 fluorescence intensity (a.u.).

Regarding “TCAAAATGAAACTATTTCTTCACATACGTTCTCCTCTCAACGGAGTCACCTAGTGCAG”, the binding signal is 8420 fluorescence intensity (a.u.).

For “GAGCTCGCTCCTCACTCGATCGCCGTGTCGCAGTTCATCCCGGAGTCACCTAGTGCAG”, the binding signal was 9120 fluorescence intensity (a.u.).

As for “CGTGTAAGTGATAGAGTGGGTAGGTAGTTGGGTGGGTTTACGGAGTCACCTAGTGCAG”, the binding signal is 9280 fluorescence intensity (a.u.).

Take “CTAACGAATCATGGTTTTGCAGCATCCGCCTTTGCGTTTACGGAGTCACCTAGTGCAG”: the binding signal was 9540 fluorescence intensity (a.u.).

Consider “CATGTGGGTCCCACCTGCTGACTCAGTGAGTCAAATCTGCCGGAGTCACCTAGTGCAG”, for which the binding signal is 8480 fluorescence intensity (a.u.).

“CTGTCCTCCTTATCCTGATCAGTCCTCGGTCGGCTTTTCCCGGAGTCACCTAGTGCAG”: the binding signal is 9680 fluorescence intensity (a.u.).

On to “ATCTCCCATGTGTGCATGCATCTTTTTTTGTTGTTTGCTGCGGAGTCACCTAGTGCAG”, for which the binding signal is 11200 fluorescence intensity (a.u.).

For “GAGTCTTTCTGATTTTGTATTGGTACGTGTGGGATAGGTTCGGAGTCACCTAGTGCAG”, the binding signal was 8600 fluorescence intensity (a.u.).

Regarding “TGACTTTTTCCCACATGTTTGACCATTCGTCTTTTCAAAACGGAGTCACCTAGTGCAG”, the binding signal was 9590 fluorescence intensity (a.u.).

As to “TCATTTGCTTTATTATCAAAAGTACTTTACATATGACTTACGGAGTCACCTAGTGCAG”, the binding signal is 9230 fluorescence intensity (a.u.).

As for “CACCATTGGGATGGGTGCCTATTTCTTGGAGACCGTTGACCGGAGTCACCTAGTGCAG”, the binding signal was 17300 fluorescence intensity (a.u.).

With “ACTCATCCTCATCCTCTCCATCCCTACCCACAAACTACAGCGGAGTCACCTAGTGCAG”, the binding signal was 8670 fluorescence intensity (a.u.).

As to “TTTCTATTTTTAACACTTCCGTCAATTCTCAATCGTTTTCCGGAGTCACCTAGTGCAG”, the binding signal is 11100 fluorescence intensity (a.u.).

“ATGGTACCTCGTCTTCTCCACTTATCCACCATCAATGTTCCGGAGTCACCTAGTGCAG”: the binding signal is 9150 fluorescence intensity (a.u.).

“ATATCCATGATTCTCTCCGGTGAACTAAAACTTCAAAACCCGGAGTCACCTAGTGCAG”: the binding signal is 8710 fluorescence intensity (a.u.).

In the case of “TCATATGGAACTATCACATGACTATACAACCTATCTTCTTCGGAGTCACCTAGTGCAG”, the binding signal is 8190 fluorescence intensity (a.u.).

Consider “CCCCACGGCGGCGTCGCTCCCTGTACCCCTCAGCCACGGCCGGAGTCACCTAGTGCAG”, for which the binding signal was 9310 fluorescence intensity (a.u.).

On to “TTGTCGTCGTCGTCCTCGTCCTCGTATGCCGTCCGCTGGCCGGAGTCACCTAGTGCAG”, for which the binding signal was 13200 fluorescence intensity (a.u.).

Turning to “TTCTCACTTAAATTTATAGTGTATTTTCTTTTAATTTACACGGAGTCACCTAGTGCAG”, the binding signal is 8720 fluorescence intensity (a.u.).

For “CCTACACCCTCATGCTGTTCGTGATCATCTTCCCGCTTCGCGGAGTCACCTAGTGCAG”, the binding signal was 10900 fluorescence intensity (a.u.).

Take “CCATCTTCTTCTCGTTAGGTTCTTGGATTTCATCGCTCAACGGAGTCACCTAGTGCAG”: the binding signal is 8640 fluorescence intensity (a.u.).

Take “TCCTACTAAAACTTTTCTTTTCTTTTCTCACTGTCTTTTCCGGAGTCACCTAGTGCAG”: the binding signal was 11800 fluorescence intensity (a.u.).

“CTCTACCATGCACAGCAGCAGCAGCTTGTATCATCCTACTCGGAGTCACCTAGTGCAG”: the binding signal was 8080 fluorescence intensity (a.u.).

On to “CATTAATTCATGAGTTGTATTTCATTATGTTCCGTATATACGGAGTCACCTAGTGCAG”, for which the binding signal is 8750 fluorescence intensity (a.u.).

Consider “AGATTCCTGTCATGTGTCCAATTAAGGCTTTGTTCATCGTCGGAGTCACCTAGTGCAG”, for which the binding signal is 9120 fluorescence intensity (a.u.).

With “CTACCGCATCCCCTCCCTCTCTCGGCGAGCCGAATCCATGCGGAGTCACCTAGTGCAG”, the binding signal is 8270 fluorescence intensity (a.u.).

In the case of “CCGCTGCGCCACCGCCGCCGCGCCCCATGCTCCTCCACCTCGGAGTCACCTAGTGCAG”, the binding signal was 8560 fluorescence intensity (a.u.).

Turning to “GAGGTTTTTCGCCGGTGTTTTGGTTGGCCTCCGCCGTTCCCGGAGTCACCTAGTGCAG”, the binding signal is 10800 fluorescence intensity (a.u.).

Consider “GCACTCAGCCACTTACCATGTTCTGGAATAAAAATTGAATCGGAGTCACCTAGTGCAG”, for which the binding signal is 10000 fluorescence intensity (a.u.).

Regarding “GGCCATTGGCACCGCTCGCCGCCGCCACGACGACCGCCAACGGAGTCACCTAGTGCAG”, the binding signal is 8630 fluorescence intensity (a.u.).

Regarding “CTTATAGTACTCCTCCAGCTTTGGTTACTCGTTTTGGTGACGGAGTCACCTAGTGCAG”, the binding signal is 9400 fluorescence intensity (a.u.).

Regarding “AGATGTTTTTTTGGTACTTTAGTATGTCATCTGTGTTTAACGGAGTCACCTAGTGCAG”, the binding signal is 10900 fluorescence intensity (a.u.).

With “AAGCGATCGGGGCGGCGGAGGAGGTGGGTGGGAGGGAGGGCGGAGTCACCTAGTGCAG”, the binding signal is 30200 fluorescence intensity (a.u.).

For the sequence “GTTTGACCAATCTTCAGCTTTGATTGAGACGCTGACTTTTCGGAGTCACCTAGTGCAG”, the binding signal is 8460 fluorescence intensity (a.u.).

Take “AAACATGTGCTAAAAAGTCAACGGTGTCAAACATTTTGAACGGAGTCACCTAGTGCAG”: the binding signal is 10400 fluorescence intensity (a.u.).

“TGGCTTATCTCGTTTTGTATATCATCTTCTTAATCTTTTTCGGAGTCACCTAGTGCAG”: the binding signal is 10500 fluorescence intensity (a.u.).

Turning to “CCACCGATTGCTTGTCTCCATTTGCACCCGCTCCAGAAACCGGAGTCACCTAGTGCAG”, the binding signal was 10200 fluorescence intensity (a.u.).

Take “TATGAACTTGCTCGATCACTCTGTCACTCACTCACTCACCCGGAGTCACCTAGTGCAG”: the binding signal was 8960 fluorescence intensity (a.u.).
